Measurements published in publication PMC9008698.
No constants are given. Whether binding was seen depends on the method and setting. In cells and extracts the contact can be indirect. Some entries that bind do so weakly or less than the wild type.

By UniProt entry, the sequences of proteins in these tests, tags left out.
UniProt Q04206: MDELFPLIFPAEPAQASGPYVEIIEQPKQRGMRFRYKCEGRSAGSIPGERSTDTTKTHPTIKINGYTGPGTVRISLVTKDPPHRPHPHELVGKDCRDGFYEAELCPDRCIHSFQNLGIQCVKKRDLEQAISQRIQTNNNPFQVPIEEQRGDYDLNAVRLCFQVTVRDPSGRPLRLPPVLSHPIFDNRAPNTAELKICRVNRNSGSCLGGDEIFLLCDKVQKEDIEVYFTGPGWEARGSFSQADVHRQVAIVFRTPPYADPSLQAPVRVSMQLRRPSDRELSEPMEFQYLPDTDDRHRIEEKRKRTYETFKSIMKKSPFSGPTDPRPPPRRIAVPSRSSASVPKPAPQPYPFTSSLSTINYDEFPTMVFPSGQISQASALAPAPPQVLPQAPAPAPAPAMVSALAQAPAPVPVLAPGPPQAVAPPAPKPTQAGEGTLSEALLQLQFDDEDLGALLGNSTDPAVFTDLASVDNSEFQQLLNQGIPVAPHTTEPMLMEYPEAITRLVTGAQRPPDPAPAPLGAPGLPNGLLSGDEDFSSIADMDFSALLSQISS

How the values were obtained:
Experiment in all cases: co-IP; HEK293T cells co-transfected with both partners; lysis in 0.5% Triton X-100, 20 mM Tris-HCl pH 7.5, 150 mM NaCl, 10% glycerol, 1 mM EDTA; anti-Flag agarose or anti-HA magnetic beads 4 h at 4°C; washes with 300 mM NaCl; immunoblotting
[1] = target: T1, TRAF2-C (C-terminal TRAF domain; residues 272–501) (UniProt Q12933)
T1 sequence: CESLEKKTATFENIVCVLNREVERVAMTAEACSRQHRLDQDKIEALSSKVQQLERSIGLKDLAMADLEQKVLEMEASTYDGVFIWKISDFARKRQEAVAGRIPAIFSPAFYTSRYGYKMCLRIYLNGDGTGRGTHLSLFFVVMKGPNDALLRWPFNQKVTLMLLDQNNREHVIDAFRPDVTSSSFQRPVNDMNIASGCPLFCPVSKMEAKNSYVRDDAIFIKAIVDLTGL

[2] = target: T2, TRAF2 (full length, overexpressed) (UniProt Q12933)
T2 sequence: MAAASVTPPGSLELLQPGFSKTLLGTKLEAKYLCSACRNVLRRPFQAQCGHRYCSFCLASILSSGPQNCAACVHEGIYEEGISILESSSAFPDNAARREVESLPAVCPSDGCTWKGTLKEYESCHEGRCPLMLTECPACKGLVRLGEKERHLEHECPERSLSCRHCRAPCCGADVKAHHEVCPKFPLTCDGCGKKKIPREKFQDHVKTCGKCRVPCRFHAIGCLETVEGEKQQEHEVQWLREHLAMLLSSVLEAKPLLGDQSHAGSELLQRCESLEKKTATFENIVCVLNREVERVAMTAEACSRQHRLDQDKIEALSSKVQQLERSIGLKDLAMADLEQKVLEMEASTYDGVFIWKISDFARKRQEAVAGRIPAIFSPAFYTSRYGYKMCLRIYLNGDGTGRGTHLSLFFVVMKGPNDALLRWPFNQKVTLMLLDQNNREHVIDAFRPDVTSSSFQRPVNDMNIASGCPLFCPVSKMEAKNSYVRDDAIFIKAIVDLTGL

IKKα = target: T3, IKKα (UniProt O15111)
T3 sequence: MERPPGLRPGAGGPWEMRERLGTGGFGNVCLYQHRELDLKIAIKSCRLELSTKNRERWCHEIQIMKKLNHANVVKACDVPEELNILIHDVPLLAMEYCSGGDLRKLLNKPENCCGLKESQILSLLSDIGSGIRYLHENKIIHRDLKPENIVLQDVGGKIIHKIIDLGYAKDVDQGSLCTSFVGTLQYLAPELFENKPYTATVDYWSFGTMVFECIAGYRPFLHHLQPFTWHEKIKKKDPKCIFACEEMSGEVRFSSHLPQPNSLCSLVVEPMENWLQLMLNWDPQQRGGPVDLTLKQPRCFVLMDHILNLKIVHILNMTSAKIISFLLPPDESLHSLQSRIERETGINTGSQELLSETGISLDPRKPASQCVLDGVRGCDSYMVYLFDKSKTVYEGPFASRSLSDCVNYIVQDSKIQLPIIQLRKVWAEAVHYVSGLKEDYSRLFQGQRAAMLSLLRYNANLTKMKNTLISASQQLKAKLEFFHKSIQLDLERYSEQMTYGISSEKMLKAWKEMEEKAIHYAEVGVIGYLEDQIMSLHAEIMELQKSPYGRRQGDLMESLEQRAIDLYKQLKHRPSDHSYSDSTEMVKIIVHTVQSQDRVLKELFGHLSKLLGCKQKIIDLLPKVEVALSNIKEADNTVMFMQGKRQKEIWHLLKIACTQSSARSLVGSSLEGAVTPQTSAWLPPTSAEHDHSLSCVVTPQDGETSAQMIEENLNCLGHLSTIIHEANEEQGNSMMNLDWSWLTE

p65 = p65 (UniProt Q04206)
[3] = target: T4, TRAF6-C (C-terminal TRAF domain; residues 262–522) (UniProt Q9Y4K3)
T4 sequence: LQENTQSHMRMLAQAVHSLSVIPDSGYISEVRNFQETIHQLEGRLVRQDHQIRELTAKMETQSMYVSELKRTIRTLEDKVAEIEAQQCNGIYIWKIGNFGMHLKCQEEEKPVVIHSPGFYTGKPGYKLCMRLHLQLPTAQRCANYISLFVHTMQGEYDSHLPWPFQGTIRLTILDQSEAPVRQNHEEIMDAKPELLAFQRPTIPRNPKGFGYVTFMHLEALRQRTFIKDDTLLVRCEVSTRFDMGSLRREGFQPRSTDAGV

binding [1]: binds
binding [2]: binds
binding (IKKα): no binding
binding (p65): no binding
binding [3]: binds
B1: KIZ (full length, co-transfected in HEK293T) (protein, UniProt Q2M2Z5 1-673)
chain: MSRTLASAVPLSSPDYYERLGQLQHGLRDSEKKRLDLEKKLYEYNQSDTCRVKLKYVKLKNYLKEICESEKKAHTRNQEYLKRFERVQAHVVHFTTNTEKLQKLKLEYETQIKKMLCSKDSLGLKEELTDEDREKVAVHEGINSGTAMSRGLYQPATIFMGRQMSAILSMRDFSTEHKSPQPTKNFSIPDPHSHRQTAQSSNVTDSCVVQTSNDTQCLNKSDNIDGKASLQIGEKMPVTASVLSEEEQTHCLEIGSNTRHGKSNLSEGKKSAELNSPLRERLSPENRTTDLKCDSSSGSEGEILTREHIEVEEKRASPPVSPIPVSEYCESENKWSQEKHSPWEGVSDHLAHREPKSQKPFRKMQEEEEESWSTSSDLTISISEDDLILESPEPQPNPGGKMEGEDGIEALKLIHAEQERVALSTEKNCILQTLSSPDSEKESSTNAPTREPGQTPDSDVPRAQVGQHVATLKEHDNSVKEEATALLRKALTEECGRRSAIHSSESSCSLPSILNDNSGIKEAKPAVWLNSVPTREQEVSSGCGDKSKKENVAADIPITETEAYQLLKKATLQDNTNQTENRFQKTDASVSHLSGLNIGSGAFETKTANKIASEASFSSSEGSPLSRHENKKKPVINLKSNALWDESDDSNSEIEAALRPRNHNTDDSDDFYD
